Results are given in words; binding and its absence hold for the method and conditions named. Binding calls can cover weak binding; strength is not graded here. For some of these results: Where a sequence is shown, tags or fusion partners need not be part of it. For some of these results: In cells and extracts the contact can be indirect.
Experiments:
[1] = target: GST‐NF‐YC12 (rice (Oryza sativa L.)); test: pull-down; GST pull-down with two proteins; Glutathione High Capacity Magnetic Agarose Beads, 500 μg of each recombinant protein in 600 μL pull-down buffer (50 mM Tris‐HCl pH 7.5, 5% glycerol, 1 mM EDTA, 1 mM DTT, 1 mM PMSF, 0.01% Nonidet P‐40, 150 mM KCl), 4 °C, 2 h; immunoblot; both purified
[2] = target: NF‐YC12 in MCS3 of pDOE‐BiFC (rice (Oryza sativa L.)); test: split reporter; BiFC (pDOE‐BiFC, YFP) in Nicotiana benthamiana leaf epidermal cells, confocal microscopy 72 h after infiltration; without NF‐YC12‐mcherry as third protein
[3] = target: truncated NF‐YC12 without the 5′ upstream region of the HLD (rice (Oryza sativa L.)); test: two-hybrid; bacterial two-hybrid (BacterioMatch II) in E. coli XL1‐Blue MRF′; NF‐YB1‐pTRG and NF‐YCs‐pBT; growth on M9/+Cm/+Ter/+3‐AT/+Strep/‐HIS against M9/+Cm/+Ter; intensity = ratio (%) of colony numbers
[4] = target: NF‐YC11‐pBT (rice (Oryza sativa L.)); test: as above

B1: HIS‐NF‐YB1 (protein, UniProt Q6Z348 1-186)
chain: MAGNKKRGGRNMDQVKKAAVRSDGVGGSATNAELPMANLVRLIKKVLPGKAKIGGAAKGLTHDCAVEFVGFVGDEASEKAKAEHRRTVAPEDYLGSFGDLGFDRYVDPMDAYIHGYREFERAGGNRRVAPPPPAAATPLTPGGPTFTDAELQFLRSVIPSRSDDEYSGSSPAIGGYGYGYGYGKNM
binding [1]: binds

B2: NF‐YB1 in MCS1 of pDOE‐BiFC (protein, UniProt Q6Z348 1-186)
chain: MAGNKKRGGRNMDQVKKAAVRSDGVGGSATNAELPMANLVRLIKKVLPGKAKIGGAAKGLTHDCAVEFVGFVGDEASEKAKAEHRRTVAPEDYLGSFGDLGFDRYVDPMDAYIHGYREFERAGGNRRVAPPPPAAATPLTPGGPTFTDAELQFLRSVIPSRSDDEYSGSSPAIGGYGYGYGYGKNM
binding [2]: binds

B3: NF‐YB1‐pTRG (protein, UniProt Q6Z348 1-186)
chain: MAGNKKRGGRNMDQVKKAAVRSDGVGGSATNAELPMANLVRLIKKVLPGKAKIGGAAKGLTHDCAVEFVGFVGDEASEKAKAEHRRTVAPEDYLGSFGDLGFDRYVDPMDAYIHGYREFERAGGNRRVAPPPPAAATPLTPGGPTFTDAELQFLRSVIPSRSDDEYSGSSPAIGGYGYGYGYGKNM
binding [3]: binds | binding [4]: binds

Reference: PMC6576074, “NF‐YB1‐YC12‐bHLH144 complex directly activates Wx to regulate grain quality in rice (Oryza sativa L.)”
